We go through one molecule from doi:10.1101/2024.06.14.24308555.

These are yes or no findings as the source states them, for the method shown. In cells and extracts the contact can be indirect. These calls come from enrichment with a bait or labelling near it, and not all partners need be listed. Sequences can lack the tags named with a protein.

The test addresses T1, Flag-GFP-tagged IRF9 (F-G-IRF9) (human) (UniProt Q00978).
T1 sequence: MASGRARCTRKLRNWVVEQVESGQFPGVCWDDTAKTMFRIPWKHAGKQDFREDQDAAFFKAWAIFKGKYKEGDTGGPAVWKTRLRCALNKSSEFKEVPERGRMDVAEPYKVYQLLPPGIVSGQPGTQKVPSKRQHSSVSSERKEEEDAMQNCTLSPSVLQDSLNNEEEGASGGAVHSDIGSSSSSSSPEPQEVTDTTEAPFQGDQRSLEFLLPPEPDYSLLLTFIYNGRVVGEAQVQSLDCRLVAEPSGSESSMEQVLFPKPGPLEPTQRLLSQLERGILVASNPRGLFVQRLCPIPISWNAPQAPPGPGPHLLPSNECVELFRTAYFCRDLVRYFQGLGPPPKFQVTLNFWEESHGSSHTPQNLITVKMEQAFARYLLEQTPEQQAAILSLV
In words: affinity purification with mass spectrometry.

B1: PTP1B, endogenous (enzyme, UniProt P18031 1-435)
chain: MEMEKEFEQIDKSGSWAAIYQDIRHEASDFPCRVAKLPKNKNRNRYRDVSPFDHSRIKLHQEDNDYINASLIKMEEAQRSYILTQGPLPNTCGHFWEMVWEQKSRGVVMLNRVMEKGSLKCAQYWPQKEEKEMIFEDTNLKLTLISEDIKSYYTVRQLELENLTTQETREILHFHYTTWPDFGVPESPASFLNFLFKVRESGSLSPEHGPVVVHCSAGIGRSGTFCLADTCLLLMDKRKDPSSVDIKKVLLEMRKFRMGLIQTADQLRFSYLAVIEGAKFIMGDSSVQDQWKELSHEDLEPPPEHIPPPPRPPKRILEPHNGKCREFFPNHQWVKEETQEDKDCPIKEEKGSPLNAAPYGIESMSQDTEVRSRVVGGSLRGAQAASPAKGEPSLPEKDEDHALSYWKPFLVNMCVATVLTAGAYLCYRFLFNSNT
Turning to B1, the binding result is given as “binds”.
